The M2OR odorant receptor database
Numbering of substitutions follows the chain as printed. Only a part is listed here, and it is no random draw. Calls are pooled over several reports, among them a noisy single-well screen. The list shows a part of the results.

Chains of the proteins cited; added tags and fusions are not shown. Chains listed by the source or under a name are the forms on record and can include a tag or linker.
OR8B4, as listed by the source: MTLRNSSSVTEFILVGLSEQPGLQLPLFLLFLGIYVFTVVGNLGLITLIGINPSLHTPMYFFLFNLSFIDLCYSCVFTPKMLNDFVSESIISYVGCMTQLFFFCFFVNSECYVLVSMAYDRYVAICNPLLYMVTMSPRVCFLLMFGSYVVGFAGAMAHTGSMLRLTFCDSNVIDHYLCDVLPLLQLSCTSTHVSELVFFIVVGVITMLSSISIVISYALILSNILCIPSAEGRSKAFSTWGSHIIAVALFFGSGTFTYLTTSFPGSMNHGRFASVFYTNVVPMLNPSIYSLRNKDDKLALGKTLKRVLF

Columns and labels:
Conditions in all cases: stereoisomer not certain
OR8B3 = system: T1, OR8B3
T1 sequence (whole entry): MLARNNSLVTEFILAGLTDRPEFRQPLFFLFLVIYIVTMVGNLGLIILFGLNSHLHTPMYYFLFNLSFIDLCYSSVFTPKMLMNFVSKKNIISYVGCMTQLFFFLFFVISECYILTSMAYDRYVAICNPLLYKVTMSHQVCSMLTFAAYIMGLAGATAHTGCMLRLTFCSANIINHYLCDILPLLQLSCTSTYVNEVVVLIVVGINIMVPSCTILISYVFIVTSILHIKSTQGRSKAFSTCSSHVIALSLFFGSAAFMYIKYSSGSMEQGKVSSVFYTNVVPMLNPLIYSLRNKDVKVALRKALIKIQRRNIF
Method in brief: (§1)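 Transient luciferase assays in mammalian cell lines were common, though methods varied by source. The values come from published papers and their supplementary material, with extra details from the original authors when needed. Responsive refers to a measured signal the original authors judged statistically different from baseline, and non-responsive (inactive) to the remainder.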

OR8B4 [1] = system: T2, OR8B4
T2 sequence (whole entry): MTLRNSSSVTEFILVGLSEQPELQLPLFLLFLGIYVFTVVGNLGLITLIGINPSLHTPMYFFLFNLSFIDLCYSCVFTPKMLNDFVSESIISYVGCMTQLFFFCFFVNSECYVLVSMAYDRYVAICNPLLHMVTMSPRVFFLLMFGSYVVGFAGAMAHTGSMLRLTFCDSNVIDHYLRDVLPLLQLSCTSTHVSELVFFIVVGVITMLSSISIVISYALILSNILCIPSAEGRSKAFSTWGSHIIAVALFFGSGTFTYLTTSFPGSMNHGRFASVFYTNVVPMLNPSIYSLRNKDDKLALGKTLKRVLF
Method in brief: as §1

OR8B4 [2] = system: T3, OR8B4; remark: listed apart in the source
T3 sequence (whole entry): T2 sequence (whole entry) with E22G, H131Y, F140C, R178C
Method in brief: as §1

OR8B8 (Homo sapiens) = biological target: T4, OR8B8 (Homo sapiens) (UniProt Q15620)
T4 sequence (whole entry): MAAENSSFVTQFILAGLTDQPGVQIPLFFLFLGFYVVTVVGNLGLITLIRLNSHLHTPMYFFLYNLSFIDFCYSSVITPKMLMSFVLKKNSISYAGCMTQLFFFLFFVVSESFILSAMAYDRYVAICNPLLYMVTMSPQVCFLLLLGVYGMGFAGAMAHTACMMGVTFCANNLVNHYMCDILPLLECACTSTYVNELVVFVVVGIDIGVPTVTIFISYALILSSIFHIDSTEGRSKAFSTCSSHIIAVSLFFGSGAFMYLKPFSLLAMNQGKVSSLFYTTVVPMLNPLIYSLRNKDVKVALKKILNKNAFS
Method in brief: as §1

OR8B8 = system: T5, OR8B8
T5 sequence (whole entry): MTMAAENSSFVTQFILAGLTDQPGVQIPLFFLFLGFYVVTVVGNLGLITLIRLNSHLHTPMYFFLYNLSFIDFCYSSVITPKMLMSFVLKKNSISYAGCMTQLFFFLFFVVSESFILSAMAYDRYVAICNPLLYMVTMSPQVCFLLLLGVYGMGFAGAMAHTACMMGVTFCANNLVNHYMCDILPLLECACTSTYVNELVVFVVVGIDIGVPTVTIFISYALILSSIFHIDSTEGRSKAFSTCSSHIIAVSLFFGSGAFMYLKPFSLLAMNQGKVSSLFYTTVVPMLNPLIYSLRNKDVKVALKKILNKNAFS
Method in brief: as §1

OR8D1 (Homo sapiens) = biological target: T6, OR8D1 (Homo sapiens) (UniProt Q8WZ84)
T6 sequence (whole entry): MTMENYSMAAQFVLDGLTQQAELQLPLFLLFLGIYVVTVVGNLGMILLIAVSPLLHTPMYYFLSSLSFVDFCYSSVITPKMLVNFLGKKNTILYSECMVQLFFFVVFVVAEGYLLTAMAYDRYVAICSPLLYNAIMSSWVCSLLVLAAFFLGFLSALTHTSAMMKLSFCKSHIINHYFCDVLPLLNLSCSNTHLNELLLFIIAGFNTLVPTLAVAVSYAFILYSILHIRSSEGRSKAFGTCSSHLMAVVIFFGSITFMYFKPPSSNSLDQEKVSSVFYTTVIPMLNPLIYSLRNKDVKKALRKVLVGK
Method in brief: as §1

OR8D2 (Homo sapiens) = biological target: T7, OR8D2 (Homo sapiens) (UniProt Q9GZM6)
T7 sequence (whole entry): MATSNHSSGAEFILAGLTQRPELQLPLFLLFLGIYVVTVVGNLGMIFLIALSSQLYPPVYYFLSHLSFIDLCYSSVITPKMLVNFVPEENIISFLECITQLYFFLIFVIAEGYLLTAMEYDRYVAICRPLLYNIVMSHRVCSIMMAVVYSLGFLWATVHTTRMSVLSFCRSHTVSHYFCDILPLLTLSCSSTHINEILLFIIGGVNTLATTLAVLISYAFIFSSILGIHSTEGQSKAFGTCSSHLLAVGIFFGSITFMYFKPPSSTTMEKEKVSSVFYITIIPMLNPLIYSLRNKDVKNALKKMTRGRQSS
Method in brief: as §1

OR8D4 = system: T8, OR8D4
T8 sequence (whole entry): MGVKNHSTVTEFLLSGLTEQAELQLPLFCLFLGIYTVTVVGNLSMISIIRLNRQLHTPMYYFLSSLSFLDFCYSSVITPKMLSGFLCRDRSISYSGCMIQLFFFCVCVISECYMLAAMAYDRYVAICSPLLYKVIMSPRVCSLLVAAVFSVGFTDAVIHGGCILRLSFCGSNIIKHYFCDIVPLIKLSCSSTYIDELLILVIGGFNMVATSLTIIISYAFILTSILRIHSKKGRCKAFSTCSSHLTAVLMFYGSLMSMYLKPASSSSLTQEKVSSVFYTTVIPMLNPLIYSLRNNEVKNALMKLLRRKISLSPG
Method in brief: as §1

OR8G1 (Homo sapiens) = biological target: T9, OR8G1 (Homo sapiens) (UniProt Q15617)
T9 sequence (whole entry): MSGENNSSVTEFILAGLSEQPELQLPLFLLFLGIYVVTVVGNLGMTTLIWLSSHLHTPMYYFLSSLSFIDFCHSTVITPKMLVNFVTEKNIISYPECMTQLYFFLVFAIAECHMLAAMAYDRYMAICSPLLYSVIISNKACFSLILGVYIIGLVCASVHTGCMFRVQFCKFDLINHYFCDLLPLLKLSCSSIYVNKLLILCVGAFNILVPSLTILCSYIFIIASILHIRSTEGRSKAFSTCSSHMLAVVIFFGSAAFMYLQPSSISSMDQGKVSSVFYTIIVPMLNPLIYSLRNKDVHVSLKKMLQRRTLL
Method in brief: as §1

OR8G5 (Homo sapiens) = biological target: T10, OR8G5 (Homo sapiens) (UniProt Q8NG78)
T10 sequence (whole entry): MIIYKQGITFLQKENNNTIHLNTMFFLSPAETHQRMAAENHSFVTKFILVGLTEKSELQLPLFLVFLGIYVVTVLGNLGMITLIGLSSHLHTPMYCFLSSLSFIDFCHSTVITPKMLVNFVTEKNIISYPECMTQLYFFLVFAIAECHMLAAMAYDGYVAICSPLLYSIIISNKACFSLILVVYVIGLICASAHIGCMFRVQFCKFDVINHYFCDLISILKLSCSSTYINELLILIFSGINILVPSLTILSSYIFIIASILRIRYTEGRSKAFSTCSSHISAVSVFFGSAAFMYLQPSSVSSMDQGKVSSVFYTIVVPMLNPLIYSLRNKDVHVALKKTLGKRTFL
Method in brief: as §1

OR8G5 = system: T11, OR8G5
T11 sequence (whole entry): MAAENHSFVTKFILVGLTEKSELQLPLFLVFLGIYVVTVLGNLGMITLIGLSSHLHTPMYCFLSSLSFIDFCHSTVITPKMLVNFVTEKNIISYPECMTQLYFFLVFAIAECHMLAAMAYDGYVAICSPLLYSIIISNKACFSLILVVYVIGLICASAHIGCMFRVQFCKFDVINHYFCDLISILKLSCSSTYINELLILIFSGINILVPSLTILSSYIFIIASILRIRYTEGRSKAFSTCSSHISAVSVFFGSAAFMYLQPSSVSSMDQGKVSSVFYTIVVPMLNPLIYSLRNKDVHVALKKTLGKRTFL
Method in brief: as §1

OR8H1 (Homo sapiens) = biological target: T12, OR8H1 (Homo sapiens) (UniProt Q8NGG4)
T12 sequence (whole entry): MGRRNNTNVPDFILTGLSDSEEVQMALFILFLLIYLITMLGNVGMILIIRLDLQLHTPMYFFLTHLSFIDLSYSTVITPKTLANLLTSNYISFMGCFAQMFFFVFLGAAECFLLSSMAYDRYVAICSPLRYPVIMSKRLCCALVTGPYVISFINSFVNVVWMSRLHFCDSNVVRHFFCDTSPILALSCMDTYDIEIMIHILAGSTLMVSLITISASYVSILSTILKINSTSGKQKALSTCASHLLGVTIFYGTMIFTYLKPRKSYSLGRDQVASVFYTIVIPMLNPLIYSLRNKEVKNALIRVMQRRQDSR
Method in brief: as §1

OR8H2 = system: T13, OR8H2
T13 sequence (whole entry): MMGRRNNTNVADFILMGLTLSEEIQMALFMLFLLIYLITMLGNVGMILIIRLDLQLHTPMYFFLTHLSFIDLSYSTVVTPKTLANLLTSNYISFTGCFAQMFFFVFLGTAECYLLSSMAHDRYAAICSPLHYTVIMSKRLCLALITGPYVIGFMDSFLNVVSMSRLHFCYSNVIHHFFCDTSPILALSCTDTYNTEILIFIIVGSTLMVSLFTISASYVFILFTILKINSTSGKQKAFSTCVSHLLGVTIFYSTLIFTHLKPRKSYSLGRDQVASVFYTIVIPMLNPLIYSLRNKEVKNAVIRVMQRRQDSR
Method in brief: as §1

OR8H3 = system: T14, OR8H3
T14 sequence (whole entry): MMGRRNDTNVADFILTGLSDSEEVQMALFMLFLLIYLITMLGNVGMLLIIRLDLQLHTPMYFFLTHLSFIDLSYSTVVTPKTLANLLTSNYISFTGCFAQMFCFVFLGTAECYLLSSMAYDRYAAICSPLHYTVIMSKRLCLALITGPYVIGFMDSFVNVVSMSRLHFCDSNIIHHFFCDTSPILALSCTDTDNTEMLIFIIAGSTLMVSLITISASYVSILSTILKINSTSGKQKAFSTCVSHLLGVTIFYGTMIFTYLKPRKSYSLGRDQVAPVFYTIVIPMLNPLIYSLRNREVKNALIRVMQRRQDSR
Method in brief: as §1

OR8I2 = system: T15, OR8I2
T15 sequence (whole entry): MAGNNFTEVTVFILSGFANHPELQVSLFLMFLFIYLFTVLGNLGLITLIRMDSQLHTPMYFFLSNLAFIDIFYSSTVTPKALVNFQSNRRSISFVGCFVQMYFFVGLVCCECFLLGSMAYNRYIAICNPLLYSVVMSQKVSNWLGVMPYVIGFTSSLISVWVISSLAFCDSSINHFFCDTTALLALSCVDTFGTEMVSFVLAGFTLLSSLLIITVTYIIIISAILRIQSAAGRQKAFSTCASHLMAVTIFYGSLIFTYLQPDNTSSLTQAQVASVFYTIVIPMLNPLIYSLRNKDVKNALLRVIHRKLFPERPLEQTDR
Method in brief: as §1

OR8J1 = system: T16, OR8J1
T16 sequence (whole entry): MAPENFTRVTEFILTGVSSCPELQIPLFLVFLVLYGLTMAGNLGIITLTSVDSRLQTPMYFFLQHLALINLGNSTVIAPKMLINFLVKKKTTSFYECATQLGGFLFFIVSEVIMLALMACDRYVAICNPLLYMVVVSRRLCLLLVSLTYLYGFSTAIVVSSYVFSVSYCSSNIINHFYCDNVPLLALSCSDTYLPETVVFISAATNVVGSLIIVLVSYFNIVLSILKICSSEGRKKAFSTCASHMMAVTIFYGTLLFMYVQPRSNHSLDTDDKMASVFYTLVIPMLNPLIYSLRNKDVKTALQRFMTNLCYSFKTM
Method in brief: as §1

OR8J3 (Homo sapiens) = biological target: T17, OR8J3 (Homo sapiens) (UniProt Q8NGG0)
T17 sequence (whole entry): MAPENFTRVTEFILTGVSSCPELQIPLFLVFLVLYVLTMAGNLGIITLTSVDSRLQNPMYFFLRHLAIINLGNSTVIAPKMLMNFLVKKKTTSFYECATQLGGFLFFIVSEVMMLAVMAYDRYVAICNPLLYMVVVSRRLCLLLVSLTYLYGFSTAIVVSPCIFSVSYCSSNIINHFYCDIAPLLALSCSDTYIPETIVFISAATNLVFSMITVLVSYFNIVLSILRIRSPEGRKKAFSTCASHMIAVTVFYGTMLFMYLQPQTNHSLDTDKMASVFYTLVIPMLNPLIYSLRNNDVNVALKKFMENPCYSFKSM
Method in brief: as §1

OR8K1 (Homo sapiens) = biological target: T18, OR8K1 (Homo sapiens) (UniProt Q8NGG5)
T18 sequence (whole entry): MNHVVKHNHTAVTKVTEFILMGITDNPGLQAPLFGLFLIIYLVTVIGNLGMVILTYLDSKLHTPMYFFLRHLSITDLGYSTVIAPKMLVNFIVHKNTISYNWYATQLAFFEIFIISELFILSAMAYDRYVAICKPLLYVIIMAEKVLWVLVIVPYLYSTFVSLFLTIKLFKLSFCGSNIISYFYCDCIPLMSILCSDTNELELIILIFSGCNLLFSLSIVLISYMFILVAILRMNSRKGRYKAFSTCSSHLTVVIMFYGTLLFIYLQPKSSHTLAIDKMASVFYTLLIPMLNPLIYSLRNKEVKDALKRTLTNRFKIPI
Method in brief: as §1

OR8K3 = system: T19, OR8K3
T19 sequence (whole entry): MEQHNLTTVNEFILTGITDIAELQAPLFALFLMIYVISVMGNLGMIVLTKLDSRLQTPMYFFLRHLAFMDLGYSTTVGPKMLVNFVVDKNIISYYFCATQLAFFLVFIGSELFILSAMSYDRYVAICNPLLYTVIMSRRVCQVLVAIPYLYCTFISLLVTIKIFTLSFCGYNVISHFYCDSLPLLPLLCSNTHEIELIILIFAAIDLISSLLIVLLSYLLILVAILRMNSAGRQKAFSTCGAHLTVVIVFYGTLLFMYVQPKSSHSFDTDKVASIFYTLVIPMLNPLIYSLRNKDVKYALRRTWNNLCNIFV
Method in brief: as §1

OR8K5 = system: T20, OR8K5
T20 sequence (whole entry): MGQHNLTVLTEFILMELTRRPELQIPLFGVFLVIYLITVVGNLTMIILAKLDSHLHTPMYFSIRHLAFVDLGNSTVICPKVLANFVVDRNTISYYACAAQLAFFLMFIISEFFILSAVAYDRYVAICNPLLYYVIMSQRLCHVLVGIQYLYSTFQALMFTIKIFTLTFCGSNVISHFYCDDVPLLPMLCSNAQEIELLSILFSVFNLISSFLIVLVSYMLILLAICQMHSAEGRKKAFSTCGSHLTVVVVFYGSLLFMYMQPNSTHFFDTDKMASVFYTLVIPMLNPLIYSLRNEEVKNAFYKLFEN
Method in brief: as §1

Measured: odorant receptor agonist call;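 further: active if original authors judged signal statistically different from baseline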

CCC(C)=O
inactive: all assays above
